Results: PubChem BioAssay AID540276 (National Center for Advancing Translational Sciences (NCATS), 2011)
About 5,400 (1.8%) of roughly 300,000 compounds were called active. Where a call stands in place of a potency, no number is given. Inconclusive means that the source gave no clear call. Such entries were picked first, then a sample of the others. Calls come from the whole dose curve; tested in HEK293 cells. Potencies of inconclusive entries are doubtful fits and often do not repeat.

assay: qHTS for inhibitors of binding or entry into cells for Marburg Virus; conditions: Marburg virus pseudotyped entry inhibition, cell reporter; series mostly up to 37.8 µM
Potency is the fitted concentration of half-maximal effect.

SMILES	Potency
O=c1oc2ccc3ccccc3c2cc1-c1nc2ccccc2o1	inconclusive: 32.6 µM [inhibitor, single point]
O=[N+]([O-])c1sccc1CS(=O)(=O)c1ccccc1	inactive
CCCCn1c(C)cc2c(c1=O)[C@H]1O[C@](c3ccsc3)(Cc3cc(OC)c(OC)cc31)O2	inconclusive: 1.19 µM [inhibitor, single point]
COc1ccc(C2=NC(=O)/C(=C\c3cc(OC)c(OC)c(OC)c3)O2)cc1	inactive
CCc1cc(C(=O)N2CCCC(C(=O)c3cccc4ccccc34)C2)n(C)n1 (centres undefined)	inconclusive: 10 µM [inhibitor, partial curve, poor fit]
O=C(NCCSc1ccccc1)c1ccccc1Cl	inconclusive: 0.282 µM [activator, partial curve, poor fit]
CC(C)CC(NC(N)=O)C(=O)NCc1ccc(Cl)cc1 (centres undefined)	inactive
Cc1ccc(-c2nc(C)sc2CC(=O)NCc2ccco2)cc1	inactive
CCOc1cccc(C(=O)Nc2ccc(N(CC)CC)cc2)c1	inactive
CC(OC(=O)c1ccc(-n2cnnn2)cc1)C(=O)Nc1ccccc1F (centres undefined)	inconclusive: 1 µM [activator, full curve, poor fit]
Cc1cc(O)c(Sc2ccccc2)c(=O)o1	inactive
CC1=C(C(=O)Nc2ccc(C)cc2Cl)C2(CCCCC2)OC1=O	inactive
O=C(Cc1ccccc1)NCC1COc2ccccc2O1 (centres undefined)	inactive
CCOC(=O)C(C)n1cnc2c(oc3ccccc32)c1=O (centres undefined)	inactive
Cc1ccc(C)n1-c1ccc(N2CCOCC2)c(Br)c1	inactive
Cc1c(Br)cc(C(=O)OC2CCN(C)CC2)c(C)c1C	inconclusive: 23.1 µM [inhibitor, single point]
Clc1ccc(CNC2CCN(Cc3ccccc3)CC2)cc1	active: 10 µM
Cc1ccc(C(=O)N/C(=C/c2cccs2)C(=O)NCc2ccco2)cc1	inactive
CCCC(O)(CCC)C(=O)NN(C(=O)OC)c1ccccc1	inactive
CCc1nnc(NC(=O)C2CC(=O)N(c3ccc(C)cc3)C2)s1 (centres undefined)	inconclusive: 4.61 µM [inhibitor, full curve]
Cc1ccc(/C=N/NC(=O)c2c(-c3ccccc3)noc2C)o1	inactive
O=C(Cc1c[nH]c2ccccc12)Nc1ccccc1N1CCOCC1	inconclusive: 35.5 µM [inhibitor, single point]
S=C(Cc1cccnc1)N1CCOCC1	inconclusive: 0.708 µM [inhibitor, full curve, poor fit]
Nc1nc(N)c(-c2cccc(C(F)(F)F)c2)c(Cc2cccc(C(F)(F)F)c2)n1	inconclusive: 35.5 µM [inhibitor, single point]

3 compounds from above, arranged by count of non-hydrogen atoms, high to low.
SMILES	Potency
Cc1ccc(C(=O)N/C(=C/c2cccs2)C(=O)NCc2ccco2)cc1	inactive
CCOc1cccc(C(=O)Nc2ccc(N(CC)CC)cc2)c1	inactive
O=C(Cc1ccccc1)NCC1COc2ccccc2O1 (centres undefined)	inactive
